In the supplement of paper PMC12067093, “Discovery and optimisation of a covalent ligand for TRIM25 and its application to targeted protein ubiquitination” (Chemical Science, 2025):
This is one part of the list.

Chains of the proteins cited; added tags and fusions are not shown. Lines headed by an entry give the natural chain unless they say otherwise; changes in a name come on top.
UniProt O60346: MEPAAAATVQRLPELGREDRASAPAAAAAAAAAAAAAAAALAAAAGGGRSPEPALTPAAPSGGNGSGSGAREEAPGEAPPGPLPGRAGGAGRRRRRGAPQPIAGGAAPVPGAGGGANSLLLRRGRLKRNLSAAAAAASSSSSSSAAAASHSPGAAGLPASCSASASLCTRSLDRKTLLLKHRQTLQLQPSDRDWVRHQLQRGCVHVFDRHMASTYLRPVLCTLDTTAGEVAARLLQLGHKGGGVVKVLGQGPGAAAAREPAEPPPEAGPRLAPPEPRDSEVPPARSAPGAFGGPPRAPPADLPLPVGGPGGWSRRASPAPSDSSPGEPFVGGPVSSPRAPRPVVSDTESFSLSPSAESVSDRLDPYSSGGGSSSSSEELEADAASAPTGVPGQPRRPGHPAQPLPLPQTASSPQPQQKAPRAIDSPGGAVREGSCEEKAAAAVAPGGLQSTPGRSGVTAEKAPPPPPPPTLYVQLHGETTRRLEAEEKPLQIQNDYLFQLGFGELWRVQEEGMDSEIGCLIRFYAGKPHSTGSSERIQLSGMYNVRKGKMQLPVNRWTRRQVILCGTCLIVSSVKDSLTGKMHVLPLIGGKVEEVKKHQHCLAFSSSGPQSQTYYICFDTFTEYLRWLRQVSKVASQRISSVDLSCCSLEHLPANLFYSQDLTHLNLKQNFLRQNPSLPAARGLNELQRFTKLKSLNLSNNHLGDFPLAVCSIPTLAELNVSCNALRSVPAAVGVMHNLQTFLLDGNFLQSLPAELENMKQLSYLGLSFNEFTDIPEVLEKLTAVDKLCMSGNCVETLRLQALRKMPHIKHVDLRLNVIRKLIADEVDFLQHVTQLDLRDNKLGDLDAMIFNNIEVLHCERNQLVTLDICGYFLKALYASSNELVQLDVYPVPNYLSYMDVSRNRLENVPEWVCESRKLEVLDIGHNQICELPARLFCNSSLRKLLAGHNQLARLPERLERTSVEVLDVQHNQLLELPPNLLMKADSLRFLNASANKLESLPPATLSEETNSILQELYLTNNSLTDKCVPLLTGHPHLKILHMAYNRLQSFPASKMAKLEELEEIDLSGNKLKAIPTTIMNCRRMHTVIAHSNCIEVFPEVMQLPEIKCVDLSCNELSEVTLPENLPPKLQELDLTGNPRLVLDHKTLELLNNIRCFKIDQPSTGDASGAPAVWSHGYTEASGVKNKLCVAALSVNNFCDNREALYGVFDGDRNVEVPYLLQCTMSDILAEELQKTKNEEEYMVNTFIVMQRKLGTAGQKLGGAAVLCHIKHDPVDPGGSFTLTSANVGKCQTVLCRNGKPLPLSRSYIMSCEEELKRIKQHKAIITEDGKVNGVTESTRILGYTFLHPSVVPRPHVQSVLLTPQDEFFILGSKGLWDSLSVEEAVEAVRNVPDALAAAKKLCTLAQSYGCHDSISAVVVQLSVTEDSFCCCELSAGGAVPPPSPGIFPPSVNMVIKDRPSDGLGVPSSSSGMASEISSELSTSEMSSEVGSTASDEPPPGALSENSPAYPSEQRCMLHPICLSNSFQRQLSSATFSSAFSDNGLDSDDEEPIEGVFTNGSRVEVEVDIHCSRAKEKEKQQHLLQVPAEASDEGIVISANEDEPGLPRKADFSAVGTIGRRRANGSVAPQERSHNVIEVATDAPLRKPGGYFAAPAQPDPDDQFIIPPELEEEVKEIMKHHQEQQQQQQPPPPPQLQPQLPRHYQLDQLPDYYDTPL
UniProt O15067: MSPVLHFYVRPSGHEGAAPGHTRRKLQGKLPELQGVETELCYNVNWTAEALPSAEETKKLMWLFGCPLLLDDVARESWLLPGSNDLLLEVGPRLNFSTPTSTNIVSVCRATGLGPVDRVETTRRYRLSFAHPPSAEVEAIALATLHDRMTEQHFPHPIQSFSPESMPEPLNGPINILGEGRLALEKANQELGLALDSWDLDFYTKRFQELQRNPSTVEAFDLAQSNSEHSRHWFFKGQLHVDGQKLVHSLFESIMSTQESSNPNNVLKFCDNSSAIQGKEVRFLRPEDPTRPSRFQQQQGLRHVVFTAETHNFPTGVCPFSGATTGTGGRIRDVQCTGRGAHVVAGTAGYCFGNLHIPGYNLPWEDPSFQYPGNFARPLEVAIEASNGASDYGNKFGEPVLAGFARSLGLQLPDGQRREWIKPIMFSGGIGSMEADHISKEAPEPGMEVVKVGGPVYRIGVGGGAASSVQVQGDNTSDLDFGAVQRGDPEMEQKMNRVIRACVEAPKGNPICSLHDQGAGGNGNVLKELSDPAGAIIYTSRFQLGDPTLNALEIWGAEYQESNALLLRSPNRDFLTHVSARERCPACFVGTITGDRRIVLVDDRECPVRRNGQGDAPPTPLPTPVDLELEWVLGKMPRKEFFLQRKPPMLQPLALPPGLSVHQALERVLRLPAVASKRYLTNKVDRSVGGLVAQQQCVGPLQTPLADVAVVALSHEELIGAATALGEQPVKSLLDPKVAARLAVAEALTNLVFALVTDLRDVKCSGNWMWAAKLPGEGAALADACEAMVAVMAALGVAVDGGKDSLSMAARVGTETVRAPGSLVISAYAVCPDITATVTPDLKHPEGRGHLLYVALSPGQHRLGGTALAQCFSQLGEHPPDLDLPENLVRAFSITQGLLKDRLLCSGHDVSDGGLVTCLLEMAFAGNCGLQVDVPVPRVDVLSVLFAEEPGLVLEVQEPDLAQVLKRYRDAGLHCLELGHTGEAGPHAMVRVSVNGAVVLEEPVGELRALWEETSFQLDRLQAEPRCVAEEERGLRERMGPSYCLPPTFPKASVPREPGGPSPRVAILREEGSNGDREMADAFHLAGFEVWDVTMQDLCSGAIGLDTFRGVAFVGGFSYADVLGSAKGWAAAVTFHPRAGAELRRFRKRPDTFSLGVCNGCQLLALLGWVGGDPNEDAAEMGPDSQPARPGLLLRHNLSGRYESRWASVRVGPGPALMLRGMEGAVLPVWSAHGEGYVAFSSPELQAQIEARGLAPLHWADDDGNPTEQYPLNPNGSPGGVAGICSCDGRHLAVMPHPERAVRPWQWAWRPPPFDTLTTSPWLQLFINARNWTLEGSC
UniProt P07737, whole entry, looked up: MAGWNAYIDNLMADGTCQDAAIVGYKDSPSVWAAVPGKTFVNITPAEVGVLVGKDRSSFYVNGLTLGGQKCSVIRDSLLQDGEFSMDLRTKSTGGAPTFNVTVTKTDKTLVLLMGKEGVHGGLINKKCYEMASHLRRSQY
UniProt Q8IZL8: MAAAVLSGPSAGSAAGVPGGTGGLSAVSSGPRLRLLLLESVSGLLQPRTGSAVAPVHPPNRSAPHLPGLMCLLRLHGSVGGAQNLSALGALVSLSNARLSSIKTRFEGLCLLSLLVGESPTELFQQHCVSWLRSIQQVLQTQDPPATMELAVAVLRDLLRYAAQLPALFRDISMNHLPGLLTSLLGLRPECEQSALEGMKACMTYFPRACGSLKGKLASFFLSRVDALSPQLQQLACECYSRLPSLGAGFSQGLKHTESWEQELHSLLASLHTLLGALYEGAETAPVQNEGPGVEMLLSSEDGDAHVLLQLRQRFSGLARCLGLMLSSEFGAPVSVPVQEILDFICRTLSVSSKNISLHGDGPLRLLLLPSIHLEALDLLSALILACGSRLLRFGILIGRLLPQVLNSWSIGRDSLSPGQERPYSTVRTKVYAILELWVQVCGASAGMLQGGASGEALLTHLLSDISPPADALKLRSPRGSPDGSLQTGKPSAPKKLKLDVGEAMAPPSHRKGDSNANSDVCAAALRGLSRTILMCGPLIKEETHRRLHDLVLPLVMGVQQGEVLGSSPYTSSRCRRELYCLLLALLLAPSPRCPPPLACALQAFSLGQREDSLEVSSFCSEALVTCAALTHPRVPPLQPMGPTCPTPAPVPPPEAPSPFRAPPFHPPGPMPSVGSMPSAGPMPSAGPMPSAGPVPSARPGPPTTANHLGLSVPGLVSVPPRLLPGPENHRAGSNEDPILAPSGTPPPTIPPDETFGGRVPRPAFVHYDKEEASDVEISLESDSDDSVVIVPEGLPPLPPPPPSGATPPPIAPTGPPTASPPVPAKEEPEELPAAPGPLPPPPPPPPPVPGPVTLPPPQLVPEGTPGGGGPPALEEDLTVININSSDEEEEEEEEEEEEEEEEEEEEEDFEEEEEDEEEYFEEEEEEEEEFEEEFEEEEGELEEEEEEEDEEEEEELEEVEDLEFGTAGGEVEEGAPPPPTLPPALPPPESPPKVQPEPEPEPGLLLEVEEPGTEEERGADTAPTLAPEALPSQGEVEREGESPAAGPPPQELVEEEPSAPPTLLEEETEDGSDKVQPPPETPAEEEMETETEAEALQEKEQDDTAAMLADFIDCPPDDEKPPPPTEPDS
UniProt Q6ZUJ8: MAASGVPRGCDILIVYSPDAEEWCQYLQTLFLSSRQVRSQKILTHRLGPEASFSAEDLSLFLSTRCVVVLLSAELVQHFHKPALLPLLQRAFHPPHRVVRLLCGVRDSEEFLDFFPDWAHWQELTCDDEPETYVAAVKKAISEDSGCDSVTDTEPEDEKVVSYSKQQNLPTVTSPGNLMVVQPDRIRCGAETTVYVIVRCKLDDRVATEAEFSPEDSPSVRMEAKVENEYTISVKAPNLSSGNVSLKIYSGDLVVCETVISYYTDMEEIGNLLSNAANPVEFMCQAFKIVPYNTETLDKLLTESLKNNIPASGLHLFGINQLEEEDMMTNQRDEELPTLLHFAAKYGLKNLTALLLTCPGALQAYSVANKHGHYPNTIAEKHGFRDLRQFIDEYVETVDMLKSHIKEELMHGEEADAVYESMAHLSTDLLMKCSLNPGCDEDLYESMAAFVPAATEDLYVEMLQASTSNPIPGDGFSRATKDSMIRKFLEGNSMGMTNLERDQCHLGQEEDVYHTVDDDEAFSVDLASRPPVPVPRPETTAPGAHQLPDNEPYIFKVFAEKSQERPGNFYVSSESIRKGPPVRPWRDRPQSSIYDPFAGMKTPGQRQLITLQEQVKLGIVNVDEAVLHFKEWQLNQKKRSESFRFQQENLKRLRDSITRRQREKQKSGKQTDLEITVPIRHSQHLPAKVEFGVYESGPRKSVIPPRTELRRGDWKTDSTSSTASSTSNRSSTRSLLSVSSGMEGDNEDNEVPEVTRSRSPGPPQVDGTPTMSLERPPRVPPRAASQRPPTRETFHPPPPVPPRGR
UniProt P53609, whole entry, looked up: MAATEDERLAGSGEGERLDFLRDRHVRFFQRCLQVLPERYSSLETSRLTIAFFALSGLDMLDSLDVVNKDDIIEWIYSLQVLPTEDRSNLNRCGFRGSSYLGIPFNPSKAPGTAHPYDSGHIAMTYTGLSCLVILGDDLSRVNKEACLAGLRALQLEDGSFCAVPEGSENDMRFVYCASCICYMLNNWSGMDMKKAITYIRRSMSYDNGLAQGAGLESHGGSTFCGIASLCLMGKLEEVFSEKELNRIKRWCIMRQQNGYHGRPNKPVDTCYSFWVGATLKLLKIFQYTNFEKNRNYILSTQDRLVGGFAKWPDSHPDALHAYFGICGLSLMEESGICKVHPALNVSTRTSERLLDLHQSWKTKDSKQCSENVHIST
UniProt P00558: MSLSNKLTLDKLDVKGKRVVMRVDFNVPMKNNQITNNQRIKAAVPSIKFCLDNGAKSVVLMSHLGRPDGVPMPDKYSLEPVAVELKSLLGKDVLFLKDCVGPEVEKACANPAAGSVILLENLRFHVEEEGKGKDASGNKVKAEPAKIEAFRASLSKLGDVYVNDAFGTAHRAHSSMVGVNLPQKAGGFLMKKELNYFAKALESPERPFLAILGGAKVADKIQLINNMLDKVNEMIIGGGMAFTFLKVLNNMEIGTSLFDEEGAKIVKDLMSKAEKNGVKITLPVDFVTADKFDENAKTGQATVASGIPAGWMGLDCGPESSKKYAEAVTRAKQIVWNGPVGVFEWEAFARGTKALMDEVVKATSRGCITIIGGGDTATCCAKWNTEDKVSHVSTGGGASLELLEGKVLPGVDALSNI
UniProt Q6PCE3: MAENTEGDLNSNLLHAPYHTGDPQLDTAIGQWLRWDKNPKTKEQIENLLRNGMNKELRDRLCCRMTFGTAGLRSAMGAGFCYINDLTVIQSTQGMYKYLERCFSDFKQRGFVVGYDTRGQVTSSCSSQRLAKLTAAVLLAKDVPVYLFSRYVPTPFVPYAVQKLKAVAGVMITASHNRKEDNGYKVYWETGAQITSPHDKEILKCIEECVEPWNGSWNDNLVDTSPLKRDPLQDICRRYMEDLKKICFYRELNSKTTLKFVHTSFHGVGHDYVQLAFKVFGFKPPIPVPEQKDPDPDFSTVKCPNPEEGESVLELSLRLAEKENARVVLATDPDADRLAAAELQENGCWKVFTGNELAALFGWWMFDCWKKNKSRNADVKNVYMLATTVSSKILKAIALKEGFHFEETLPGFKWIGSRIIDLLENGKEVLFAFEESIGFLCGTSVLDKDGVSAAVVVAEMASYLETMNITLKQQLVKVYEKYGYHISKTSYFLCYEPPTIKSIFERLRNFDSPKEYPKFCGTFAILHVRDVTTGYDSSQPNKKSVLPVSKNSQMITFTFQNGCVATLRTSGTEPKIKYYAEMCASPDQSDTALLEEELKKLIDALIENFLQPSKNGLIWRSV

Compound: Cc1cc(ccc1-c1ccccc1)C(=O)N1CCCN(CC1)C(=O)CCl [compound 10]
Experiment: probe-labelled cysteine peptide fold change vs DMSO (competition) (log2 fold change); higher = less target engagement (more negative = stronger competition)
Conditions: 10 µM; THP-1; incubation time: 4 h
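Also: competitive profiling in live THP-1 cells: cysteine peptides tagged with an iodoacetamide desthiobiotin (IA-DTB) probe, intensity after compound treatment relative to DMSO-treated cells.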

| Target | probe-labelled cysteine peptide fold change |
| --- | --- |
| PGM3_O95394_200_QASCSGDEYR (UniProt O95394) | -0.36 |
| PHLPP1_O60346_859_LGDLDAMIFNNIEVLHCER (UniProt O60346) | 0.189 |
| PFAS_O15067_1027_CVAEEER (UniProt O15067) | -0.163 |
| PFN1_P07737_128_CYEMASHLR (UniProt P07737) | -0.0495 |
| PELP1_Q8IZL8_536_TILMCGPLIK (UniProt Q8IZL8) | 0.0457 |
| PHF11_Q9UIL8_135_NYHFFCAK (UniProt Q9UIL8) | 0.0736 |
| PIK3AP1_Q6ZUJ8_147_AISEDSGCDSVTDTEPEDEK (UniProt Q6ZUJ8) | -0.165 |
| PELP1_Q8IZL8_645_VPPLQPMGPTCPTPAPVPPPEAPSPFR (UniProt Q8IZL8) | -0.103 |
| PGGT1B_P53609_338_WPDSHPDALHAYFGICGLSLMEESGICK (UniProt P53609) | 0.0199 |
| PGK1_P00558_379+380_GCITIIGGGDTATCCAK (UniProt P00558) | 0.251 |
| PFAS_O15067_66_KLMWLFGCPLLLDDVAR (UniProt O15067) | -0.229 |
| PFKP_Q01813_641_NESCSENYTTDFIYQLYSEEGK (UniProt Q01813) | -0.131 |
| PHF6_Q8IWS0_85_LMCSLCHCPGATIGCDVK (UniProt Q8IWS0) | 0.294 |
| PGM2L1_Q6PCE3_125_GQVTSSCSSQR (UniProt Q6PCE3) | -0.0436 |
| PES1_O00541_361_SLCIGATYDVTDSR (UniProt O00541) | -0.0518 |
| PHF10_Q8WUB8_454_TCIICGQPHHEEEMMFCDMCDR (UniProt Q8WUB8) | -0.587 |
